Data: article PMC10243807

Chains of the proteins cited; added tags and fusions are not shown.
UniProt O00425: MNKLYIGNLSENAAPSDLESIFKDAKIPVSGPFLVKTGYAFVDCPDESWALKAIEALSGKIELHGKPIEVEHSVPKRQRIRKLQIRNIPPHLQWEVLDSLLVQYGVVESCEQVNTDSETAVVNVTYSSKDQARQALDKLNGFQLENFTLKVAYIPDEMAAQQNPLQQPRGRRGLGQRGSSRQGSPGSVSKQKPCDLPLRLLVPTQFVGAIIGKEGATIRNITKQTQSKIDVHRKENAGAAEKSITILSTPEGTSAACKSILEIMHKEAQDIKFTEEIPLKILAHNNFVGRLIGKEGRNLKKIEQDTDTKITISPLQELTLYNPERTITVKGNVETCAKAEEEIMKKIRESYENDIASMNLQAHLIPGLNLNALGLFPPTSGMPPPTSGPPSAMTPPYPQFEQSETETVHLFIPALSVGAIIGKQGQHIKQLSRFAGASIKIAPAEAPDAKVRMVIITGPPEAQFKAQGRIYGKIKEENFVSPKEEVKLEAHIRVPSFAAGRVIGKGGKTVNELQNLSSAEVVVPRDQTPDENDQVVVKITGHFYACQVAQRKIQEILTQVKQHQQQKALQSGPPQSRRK
UniProt Q9Y6M1: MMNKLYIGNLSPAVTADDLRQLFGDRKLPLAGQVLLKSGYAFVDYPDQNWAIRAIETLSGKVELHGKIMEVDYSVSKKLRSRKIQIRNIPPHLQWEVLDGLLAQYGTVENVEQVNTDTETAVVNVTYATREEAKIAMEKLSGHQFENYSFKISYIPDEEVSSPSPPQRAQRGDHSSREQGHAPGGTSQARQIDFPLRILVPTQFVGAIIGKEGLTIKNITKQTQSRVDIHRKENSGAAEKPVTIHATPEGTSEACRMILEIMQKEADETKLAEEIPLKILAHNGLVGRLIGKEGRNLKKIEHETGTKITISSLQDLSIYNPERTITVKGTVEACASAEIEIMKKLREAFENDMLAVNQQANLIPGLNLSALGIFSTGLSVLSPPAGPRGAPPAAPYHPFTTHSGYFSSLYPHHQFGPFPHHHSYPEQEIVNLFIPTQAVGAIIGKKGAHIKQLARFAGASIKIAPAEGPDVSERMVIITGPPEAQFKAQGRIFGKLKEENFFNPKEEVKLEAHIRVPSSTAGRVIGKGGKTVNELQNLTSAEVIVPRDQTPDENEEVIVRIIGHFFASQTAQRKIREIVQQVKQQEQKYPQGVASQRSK
UniProt P11940: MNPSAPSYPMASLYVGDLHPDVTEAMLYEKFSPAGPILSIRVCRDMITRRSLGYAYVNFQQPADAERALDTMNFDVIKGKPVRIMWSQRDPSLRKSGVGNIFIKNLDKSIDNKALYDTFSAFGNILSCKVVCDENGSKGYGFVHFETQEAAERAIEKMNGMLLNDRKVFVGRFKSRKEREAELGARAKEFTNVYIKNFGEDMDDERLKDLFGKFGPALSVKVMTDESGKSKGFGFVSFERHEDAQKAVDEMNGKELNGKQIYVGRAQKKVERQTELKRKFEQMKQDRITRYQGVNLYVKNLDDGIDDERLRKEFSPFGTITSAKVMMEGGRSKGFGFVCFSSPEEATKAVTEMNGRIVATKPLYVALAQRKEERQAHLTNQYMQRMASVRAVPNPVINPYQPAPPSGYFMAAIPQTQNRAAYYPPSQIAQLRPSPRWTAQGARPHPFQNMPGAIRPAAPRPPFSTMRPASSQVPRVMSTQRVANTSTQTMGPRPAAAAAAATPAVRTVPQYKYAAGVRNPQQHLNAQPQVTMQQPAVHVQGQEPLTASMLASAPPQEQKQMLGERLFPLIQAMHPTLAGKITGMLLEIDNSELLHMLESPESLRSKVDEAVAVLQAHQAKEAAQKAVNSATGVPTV
UniProt Q969F8: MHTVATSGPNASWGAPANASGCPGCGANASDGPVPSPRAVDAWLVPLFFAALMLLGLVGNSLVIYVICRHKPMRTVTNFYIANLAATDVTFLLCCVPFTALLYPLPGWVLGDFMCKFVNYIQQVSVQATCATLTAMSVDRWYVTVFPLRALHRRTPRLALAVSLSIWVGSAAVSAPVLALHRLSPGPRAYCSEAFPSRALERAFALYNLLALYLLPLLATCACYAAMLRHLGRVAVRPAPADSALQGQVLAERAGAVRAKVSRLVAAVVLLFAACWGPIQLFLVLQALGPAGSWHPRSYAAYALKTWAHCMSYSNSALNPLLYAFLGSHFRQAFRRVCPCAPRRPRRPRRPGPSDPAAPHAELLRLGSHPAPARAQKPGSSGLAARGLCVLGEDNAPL
UniProt Q9Y508: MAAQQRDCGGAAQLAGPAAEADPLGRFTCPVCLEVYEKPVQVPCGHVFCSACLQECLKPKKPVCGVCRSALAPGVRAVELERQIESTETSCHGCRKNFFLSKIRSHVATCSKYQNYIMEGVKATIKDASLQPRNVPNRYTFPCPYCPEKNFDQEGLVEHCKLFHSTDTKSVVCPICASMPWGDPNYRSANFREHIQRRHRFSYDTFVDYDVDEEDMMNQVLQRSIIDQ

T1: MKRN3 with N-terminal or C-terminal FLAG and HA tags (UniProt Q13064)
T1 sequence: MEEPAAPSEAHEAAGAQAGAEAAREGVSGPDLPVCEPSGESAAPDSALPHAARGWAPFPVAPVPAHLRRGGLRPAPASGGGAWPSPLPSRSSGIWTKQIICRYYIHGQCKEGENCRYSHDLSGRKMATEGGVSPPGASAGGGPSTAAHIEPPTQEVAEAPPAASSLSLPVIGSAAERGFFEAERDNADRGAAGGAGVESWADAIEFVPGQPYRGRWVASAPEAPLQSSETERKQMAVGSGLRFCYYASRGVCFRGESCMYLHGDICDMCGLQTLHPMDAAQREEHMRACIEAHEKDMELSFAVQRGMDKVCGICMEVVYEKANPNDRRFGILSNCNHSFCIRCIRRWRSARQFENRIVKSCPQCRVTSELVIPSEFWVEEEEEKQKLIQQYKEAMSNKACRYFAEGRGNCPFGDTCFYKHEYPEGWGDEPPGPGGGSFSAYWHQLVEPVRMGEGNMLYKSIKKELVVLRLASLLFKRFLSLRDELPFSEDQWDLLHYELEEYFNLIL

B1: WD repeat-containing protein 11, endogenous (protein, UniProt Q9BZH6 1-1224)
chain: MLPYTVNFKVSARTLTGALNAHNKAAVDWGWQGLIAYGCHSLVVVIDSITAQTLQVLEKHKADVVKVKWARENYHHNIGSPYCLRLASADVNGKIIVWDVAAGVAQCEIQEHAKPIQDVQWLWNQDASRDLLLAIHPPNYIVLWNADTGTKLWKKSYADNILSFSFDPFDPSHLTLLTSEGIVFISDFSPSKPPSGPGKKVYISSPHSSPAHNKLATATGAKKALNKVKILITQEKPSAEFITLNDCLQLAYLPSKRNHMLLLYPREILILDLEVNQTVGVIAIERTGVPFLQVIPCFQRDGLFCLHENGCITLRVRRSYNNIFTTSNEEPDPDPVQELTYDLRSQCDAIRVTKTVRPFSMVCCPVNENAAALVVSDGRVMIWELKSAVCNRNSRNSSSGVSPLYSPVSFCGIPVGVLQNKLPDLSLDNMIGQSAIAGEEHPRGSILREVHLKFLLTGLLSGLPAPQFAIRMCPPLTTKNIKMYQPLLAVGTSNGSVLVYHLTSGLLHKELSIHSCEVKGIEWTSLTSFLSFATSTPNNMGLVRNELQLVDLPTGRSIAFRGERGNDESAIEMIKVSHLKQYLAVVFRDKPLELWDVRTCTLLREMSKNFPTITALEWSPSHNLKSLRKKQLATREAMARQTVVSDTELSIVESSVISLLQEAESKSELSQNISAREHFVFTDIDGQVYHLTVEGNSVKDSARIPPDGSMGSITCIAWKGDTLVLGDMDGNLNFWDLKGRVSRGIPTHRSWVRKIRFAPGKGNQKLIAMYNDGAEVWDTKEVQMVSSLRSGRNVTFRILDVDWCTSDKVILASDDGCIRVLEMSMKSACFRMDEQELTEPVWCPYLLVPRASLALKAFLLHQPWNGQYSLDISHVDYPENEEIKNLLQEQLNSLSNDIKKLLLDPEFTLLQRCLLVSRLYGDESELHFWTVAAHYLHSLSQEKSASTTAPKEAAPRDKLSNPLDICYDVLCENAYFQKFQLERVNLQEVKRSTYDHTRKCTDQLLLLGQTDRAVQLLLETSADNQHYYCDSLKACLVTTVTSSGPSQSTIKLVATNMIANGKLAEGVQLLCLIDKAADACRYLQTYGEWNRAAWLAKVRLNPEECADVLRRWVDHLCSPQVNQKSKALLVLLSLGCFFSVAETLHSMRYFDRAALFVEACLKYGAFEVTEDTEKLITAIYADYARSLKNLGFKQGAVLFASKAGAAGKDLLNELESPKEEPIEE

The molecules below were run against T1, MKRN3 with N-terminal or C-terminal FLAG and HA tags (assay: affinity purification with mass spectrometry; lysates of HEK293 or SH-SY5Y cells transfected with N- or C-terminally FLAG-HA-tagged MKRN3, with or without bortezomib; IP on immobilized anti-HA resin overnight at 4°C, elution with HA peptide, LC-MS/MS, hits filtered with CompPASS (HCIPs)).

binding | Molecule
binds | B1

Target: T1, MKRN3 with N-terminal or C-terminal FLAG and HA tags
Test: as above
Remark: another data set of the same source

binding | Molecule
binds | IGF2BP3, endogenous (from UniProt O00425 1-579)
binds | IGF2BP2, endogenous (from UniProt Q9Y6M1 1-599)
binds | PABPC1, endogenous (from UniProt P11940 1-636)
binds | KISS1R, endogenous (from UniProt Q969F8 1-398) (receptor)
binds | E3 ubiquitin-protein ligase RNF114, endogenous (from UniProt Q9Y508 1-228)

No constants are given. Whether binding was seen depends on the method and setting. In cells and extracts the contact can be indirect. These calls come from enrichment with a bait or labelling near it, and not all partners need be listed. Where a sequence is shown, tags or fusion partners need not be part of it.
